Experimental data taken from patent US12298315B2, “Systems and methods to identify and treat subjects at risk for obstetrical complications” (Wayne State University, priority 2014, dated 2025).
At least one structure is not confirmed: it was looked up by name or label, or the drawing left a doubt.

Assays:
animal models of PE = conditions: cited from earlier work
sEng = experiment: Maternal plasma sEng concentration by immunoassay; assay type: in vivo, human
Description: (§1) Sample collection and immunoassays. Blood was obtained by venipuncture and collected into tubes containing EDTA. Samples were centrifuged and stored at −70° C. Maternal plasma concentrations of sVEGFR-1, PIGF, and sEng were determined by sensitive and specific immunoassays (R&D Systems). The inter- and intra-assay coefficients of variation (CV) were: 1.4% and 3.9% for sVEGFR-1, 2.3% and 4.6% for sEng, and 6.02% and 4.8%, respectively, for PIGF. The sensitivity of the assays was 16.97 […], 0.08 ng/ml for sEng, and 9.52 […]. The laboratory personnel performing the assays were blinded to the clinical information.
(§2) Sample Collection and Immunoassays. Blood was obtained by venipuncture and collected into tubes containing EDTA at enrollment and every four weeks until the 24th week of gestation, as well as bi-weekly thereafter until delivery. Samples were centrifuged and stored at −70° C. Maternal plasma concentrations of sVEGFR-1, PIGF, and sEng were determined by immunoassays. The inter- and intra-assay coefficients of variation (CV) of the assays were: 1.4% and 3.9% for sVEGFR-1, 2.3% and 4.6% for sEng, and 6.02% and 4.8%, respectively, for PIGF. […]
(§3) Sample Collection and Immunoassays. […] All immunoassays utilized the quantitative sandwich enzyme immunoassay technique, and their concentrations in maternal plasma were determined by interpolation from the standard curves. […]

sVEGFR-1 = experiment: Maternal plasma sVEGFR-1 concentration by immunoassay; assay type: in vivo, human; conditions: third trimester, pravastatin continued; one pregnant subject
Description: as §1, §2, §3

placenta = experiment: Histopathological examination of the placenta; assay type: in vivo, human; conditions: one pregnant subject on pravastatin, delivery at 34 weeks

## CC[C@H](C)C(=O)O[C@H]1C[C@H](O)C=C2C=C[C@H](C)[C@H](CC[C@@H](O)C[C@@H](O)CC(=O)O)[C@H]21 [pravastatin, Pravastatin]
Animal models of PE; animal experiments
  Placental mRNA expression of transforming growth factor-03: reduce
  Plasma concentrations of sEng: reduce plasma concentrations of sEng
Animal models of PE; animal models of PE
  Blood pressure: ameliorate high blood pressure
  Circulating sVEGFR-1 and sEng: decrease circulating sVEGFR-1 and sEng
  PIGF and VEGF concentrations: increase PIGF and VEGF concentrations
  Vascular function as assessed by in vitro carotid artery vascular reactivity: improve vascular function
sEng; period 25 to 33 weeks of gestation, pravastatin 20 mg once daily since 17+4 weeks, one pregnant subject
  Plasma sEng, percentile for GA: 85th-94th
sEng; throughout pregnancy, instant case on pravastatin
  Plasma sEng concentrations, course: remained high throughout pregnancy
sVEGFR-1
  Plasma sVEGFR-1 concentrations, course: became abnormal again in the third trimester
placenta
  Placental pathological findings compared with previous pregnancy that ended in fetal demise: similar, but less severe
